In the test the target is FAK of NIH3T3 cells (mouse) (UniProt P34152). Nature of the test: paxillin/FAK complex in NIH3T3 cells overexpressing FAK/25aa; no figure cited.

By UniProt entry, the sequences of proteins in these tests, tags left out. Residues count along the entry.
UniProt P34152, residues 2-1052: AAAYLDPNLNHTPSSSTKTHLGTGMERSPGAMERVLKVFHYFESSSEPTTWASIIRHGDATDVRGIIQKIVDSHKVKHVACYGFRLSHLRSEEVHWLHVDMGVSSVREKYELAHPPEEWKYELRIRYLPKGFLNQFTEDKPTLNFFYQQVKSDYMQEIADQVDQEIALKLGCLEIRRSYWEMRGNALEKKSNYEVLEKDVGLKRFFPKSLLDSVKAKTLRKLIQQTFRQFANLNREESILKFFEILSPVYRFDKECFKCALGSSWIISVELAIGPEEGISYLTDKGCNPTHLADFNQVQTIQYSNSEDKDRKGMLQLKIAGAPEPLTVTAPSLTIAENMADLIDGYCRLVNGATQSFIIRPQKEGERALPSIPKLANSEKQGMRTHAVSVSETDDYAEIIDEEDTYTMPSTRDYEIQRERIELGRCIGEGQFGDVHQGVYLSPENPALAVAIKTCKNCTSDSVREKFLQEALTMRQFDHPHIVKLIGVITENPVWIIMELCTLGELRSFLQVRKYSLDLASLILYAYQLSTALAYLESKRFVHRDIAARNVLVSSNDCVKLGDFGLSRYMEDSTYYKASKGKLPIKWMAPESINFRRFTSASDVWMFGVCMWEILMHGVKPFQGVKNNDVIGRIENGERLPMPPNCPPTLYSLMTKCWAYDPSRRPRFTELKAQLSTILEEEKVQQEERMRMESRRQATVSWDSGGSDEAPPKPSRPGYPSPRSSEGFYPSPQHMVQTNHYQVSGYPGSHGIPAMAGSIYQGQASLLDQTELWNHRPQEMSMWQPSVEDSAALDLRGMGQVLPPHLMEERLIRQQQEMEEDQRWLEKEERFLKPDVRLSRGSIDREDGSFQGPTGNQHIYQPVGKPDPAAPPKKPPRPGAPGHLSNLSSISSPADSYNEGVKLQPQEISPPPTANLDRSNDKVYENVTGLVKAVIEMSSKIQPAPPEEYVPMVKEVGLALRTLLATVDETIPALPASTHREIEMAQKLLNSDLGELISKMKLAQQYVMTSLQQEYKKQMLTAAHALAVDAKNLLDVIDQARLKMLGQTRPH
UniProt Q8VI36: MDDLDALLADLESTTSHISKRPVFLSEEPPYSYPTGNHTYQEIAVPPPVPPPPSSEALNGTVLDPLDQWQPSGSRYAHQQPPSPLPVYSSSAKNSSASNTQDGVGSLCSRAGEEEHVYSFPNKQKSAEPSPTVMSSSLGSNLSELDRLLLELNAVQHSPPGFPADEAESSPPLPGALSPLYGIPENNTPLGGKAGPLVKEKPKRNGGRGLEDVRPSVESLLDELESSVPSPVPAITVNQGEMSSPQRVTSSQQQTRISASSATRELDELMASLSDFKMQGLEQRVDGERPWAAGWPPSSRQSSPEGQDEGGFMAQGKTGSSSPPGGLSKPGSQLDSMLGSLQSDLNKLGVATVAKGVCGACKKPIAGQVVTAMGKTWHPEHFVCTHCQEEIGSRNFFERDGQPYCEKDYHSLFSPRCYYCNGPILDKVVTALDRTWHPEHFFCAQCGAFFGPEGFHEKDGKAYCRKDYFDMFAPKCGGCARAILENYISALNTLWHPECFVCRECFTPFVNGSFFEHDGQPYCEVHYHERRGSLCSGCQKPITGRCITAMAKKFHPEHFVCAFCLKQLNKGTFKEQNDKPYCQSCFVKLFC

No constants are given. Whether binding was seen depends on the method and setting. Some results given as binding are weak or reduced against the parent protein; the word gives no strength.

paxillin (from UniProt Q8VI36 1-591): the binding entry is “binds”.

The values are drawn from patent publication US20180177845A1, “METHOD FOR TREATMENT OR PREVENTION OF A CANCER” (priority 2016, published 2018).
